Source: article PMC10743813

By UniProt entry, the sequences of proteins in these tests, tags left out. Where a name states a change or a piece, a line headed by the entry shows the natural chain unless it says otherwise.
UniProt Q23K54: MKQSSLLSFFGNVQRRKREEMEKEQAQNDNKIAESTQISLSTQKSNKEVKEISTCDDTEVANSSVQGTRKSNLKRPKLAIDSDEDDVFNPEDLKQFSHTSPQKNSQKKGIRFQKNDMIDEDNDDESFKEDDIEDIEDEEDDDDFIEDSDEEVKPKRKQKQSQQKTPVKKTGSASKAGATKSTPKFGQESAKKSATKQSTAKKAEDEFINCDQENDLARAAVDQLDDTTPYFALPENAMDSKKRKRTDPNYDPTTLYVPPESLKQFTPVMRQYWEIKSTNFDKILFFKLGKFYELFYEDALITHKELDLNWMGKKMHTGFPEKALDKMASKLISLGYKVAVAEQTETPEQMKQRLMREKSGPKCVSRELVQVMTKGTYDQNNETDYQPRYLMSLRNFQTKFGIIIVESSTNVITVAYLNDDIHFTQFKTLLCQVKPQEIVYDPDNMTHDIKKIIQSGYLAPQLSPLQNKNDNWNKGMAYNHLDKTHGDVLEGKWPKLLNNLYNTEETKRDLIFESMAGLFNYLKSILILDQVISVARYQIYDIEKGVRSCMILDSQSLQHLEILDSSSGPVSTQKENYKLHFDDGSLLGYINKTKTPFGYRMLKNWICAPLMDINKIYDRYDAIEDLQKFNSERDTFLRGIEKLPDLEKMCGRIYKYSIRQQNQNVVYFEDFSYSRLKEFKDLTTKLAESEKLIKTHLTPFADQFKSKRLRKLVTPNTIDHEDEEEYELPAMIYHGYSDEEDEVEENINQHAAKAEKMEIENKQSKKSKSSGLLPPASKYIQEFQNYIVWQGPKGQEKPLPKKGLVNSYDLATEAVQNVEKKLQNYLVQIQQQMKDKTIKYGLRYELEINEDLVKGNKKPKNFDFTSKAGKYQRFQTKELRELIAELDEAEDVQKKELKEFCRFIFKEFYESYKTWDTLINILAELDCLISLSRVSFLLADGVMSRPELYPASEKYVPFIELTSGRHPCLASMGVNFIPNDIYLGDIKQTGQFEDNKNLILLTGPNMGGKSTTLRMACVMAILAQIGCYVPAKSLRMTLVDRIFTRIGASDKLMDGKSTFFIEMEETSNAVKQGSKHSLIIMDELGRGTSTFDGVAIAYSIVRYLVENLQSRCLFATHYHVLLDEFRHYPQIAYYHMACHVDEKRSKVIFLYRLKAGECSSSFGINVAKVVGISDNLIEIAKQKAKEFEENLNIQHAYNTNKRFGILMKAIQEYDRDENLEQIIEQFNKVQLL
UniProt Q22BK8: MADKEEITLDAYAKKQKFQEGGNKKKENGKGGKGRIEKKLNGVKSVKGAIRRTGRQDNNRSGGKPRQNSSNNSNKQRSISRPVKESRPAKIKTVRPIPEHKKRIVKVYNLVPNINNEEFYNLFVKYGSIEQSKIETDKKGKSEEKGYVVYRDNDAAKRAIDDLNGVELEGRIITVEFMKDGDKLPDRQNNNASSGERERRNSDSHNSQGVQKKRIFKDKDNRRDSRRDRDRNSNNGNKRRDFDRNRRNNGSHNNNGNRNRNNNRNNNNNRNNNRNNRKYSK
UniProt Q23DG3: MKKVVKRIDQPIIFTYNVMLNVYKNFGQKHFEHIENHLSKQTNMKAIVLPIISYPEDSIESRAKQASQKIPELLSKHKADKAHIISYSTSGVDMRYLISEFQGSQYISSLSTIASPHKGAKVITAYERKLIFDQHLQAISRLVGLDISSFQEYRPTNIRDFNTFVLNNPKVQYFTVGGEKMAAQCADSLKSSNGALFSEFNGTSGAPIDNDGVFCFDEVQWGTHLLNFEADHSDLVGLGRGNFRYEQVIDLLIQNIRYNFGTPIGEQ
UniProt Q22A23: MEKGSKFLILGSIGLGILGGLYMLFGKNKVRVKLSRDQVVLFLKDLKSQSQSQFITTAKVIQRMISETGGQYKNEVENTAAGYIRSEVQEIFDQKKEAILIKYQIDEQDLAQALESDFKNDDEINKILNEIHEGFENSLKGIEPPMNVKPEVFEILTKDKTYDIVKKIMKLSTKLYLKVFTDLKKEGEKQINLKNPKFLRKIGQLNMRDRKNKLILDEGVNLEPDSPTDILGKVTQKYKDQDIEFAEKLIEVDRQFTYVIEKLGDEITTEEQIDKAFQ
UniProt I7ME84: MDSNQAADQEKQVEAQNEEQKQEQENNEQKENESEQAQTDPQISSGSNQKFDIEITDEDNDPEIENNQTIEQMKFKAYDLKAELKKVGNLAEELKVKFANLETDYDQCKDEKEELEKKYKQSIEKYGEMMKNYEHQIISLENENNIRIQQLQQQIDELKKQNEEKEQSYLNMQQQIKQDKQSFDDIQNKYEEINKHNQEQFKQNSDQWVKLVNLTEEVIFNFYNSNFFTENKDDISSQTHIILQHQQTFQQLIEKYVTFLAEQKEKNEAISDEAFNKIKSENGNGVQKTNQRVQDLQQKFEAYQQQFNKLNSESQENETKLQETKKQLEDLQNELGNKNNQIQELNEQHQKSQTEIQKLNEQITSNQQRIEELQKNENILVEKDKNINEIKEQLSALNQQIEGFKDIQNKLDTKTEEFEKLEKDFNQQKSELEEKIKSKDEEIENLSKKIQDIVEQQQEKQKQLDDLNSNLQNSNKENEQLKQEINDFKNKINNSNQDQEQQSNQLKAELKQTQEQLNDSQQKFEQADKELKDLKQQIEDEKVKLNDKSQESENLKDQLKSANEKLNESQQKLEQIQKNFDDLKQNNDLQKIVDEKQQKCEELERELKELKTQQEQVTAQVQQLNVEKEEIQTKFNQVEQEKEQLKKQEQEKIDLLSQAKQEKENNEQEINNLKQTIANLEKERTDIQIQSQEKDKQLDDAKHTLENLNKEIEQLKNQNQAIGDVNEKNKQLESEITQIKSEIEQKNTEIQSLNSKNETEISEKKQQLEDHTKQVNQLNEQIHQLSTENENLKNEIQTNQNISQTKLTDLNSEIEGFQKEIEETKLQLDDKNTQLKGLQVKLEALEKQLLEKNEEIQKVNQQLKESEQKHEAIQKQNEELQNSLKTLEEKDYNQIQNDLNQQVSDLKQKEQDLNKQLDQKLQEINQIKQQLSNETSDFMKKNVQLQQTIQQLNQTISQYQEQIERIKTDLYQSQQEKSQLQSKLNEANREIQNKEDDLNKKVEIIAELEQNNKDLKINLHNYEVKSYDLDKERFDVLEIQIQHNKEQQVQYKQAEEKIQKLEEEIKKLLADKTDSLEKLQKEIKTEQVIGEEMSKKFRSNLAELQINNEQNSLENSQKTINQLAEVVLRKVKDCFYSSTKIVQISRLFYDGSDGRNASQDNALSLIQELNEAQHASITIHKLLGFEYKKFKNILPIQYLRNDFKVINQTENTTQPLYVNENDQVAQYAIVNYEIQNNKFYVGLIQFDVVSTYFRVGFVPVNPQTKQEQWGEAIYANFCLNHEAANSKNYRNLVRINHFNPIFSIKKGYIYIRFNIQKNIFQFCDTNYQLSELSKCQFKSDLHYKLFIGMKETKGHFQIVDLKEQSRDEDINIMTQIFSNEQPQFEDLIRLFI
UniProt Q23FR3: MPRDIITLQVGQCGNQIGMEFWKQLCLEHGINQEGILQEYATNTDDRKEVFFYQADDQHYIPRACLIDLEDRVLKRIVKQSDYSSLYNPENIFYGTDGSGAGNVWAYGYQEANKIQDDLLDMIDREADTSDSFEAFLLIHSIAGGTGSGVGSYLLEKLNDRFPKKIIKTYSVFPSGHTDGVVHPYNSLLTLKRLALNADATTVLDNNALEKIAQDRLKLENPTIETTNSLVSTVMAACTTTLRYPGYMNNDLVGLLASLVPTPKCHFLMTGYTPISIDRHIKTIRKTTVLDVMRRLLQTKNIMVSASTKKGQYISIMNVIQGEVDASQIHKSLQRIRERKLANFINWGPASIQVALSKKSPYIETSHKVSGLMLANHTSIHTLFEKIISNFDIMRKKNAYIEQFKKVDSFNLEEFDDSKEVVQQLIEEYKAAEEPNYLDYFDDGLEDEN

Key:
[1] = target: Msh6^Tt-3HA (T. thermophila) (UniProt Q23K54); test: affinity purification with mass spectrometry; 8 h of conjugation; cells lysed by sonication on ice in PBS; Msh6^Tt-3HA precipitated by its HA tag (Pierce HA-Tagged Magnetic IP/Co-IP kit), washes TBS and TBS-T; LC-MS/MS, MaxQuant iBAQ; WT lysate without HA tag as blank control; hits: iBAQ WT/iBAQ Msh6^Tt-3HA <= 0.1
[2] = target: Msh6^Tt-3HA (T. thermophila) (UniProt Q23K54); test: affinity purification with mass spectrometry; 3 h of conjugation; cells lysed by sonication on ice in PBS; Msh6^Tt-3HA precipitated by its HA tag (Pierce HA-Tagged Magnetic IP/Co-IP kit), washes TBS and TBS-T; LC-MS/MS, MaxQuant iBAQ; WT lysate without HA tag as blank control; hits: iBAQ WT/iBAQ Msh6^Tt-3HA <= 0.05

| Molecule | binding [1] | binding [2] |
| --- | --- | --- |
| RRM53 (RNA recognition motif-containing protein 53) (from UniProt Q22BK8) | binds |  |
| TTHERM_00047280 (from UniProt Q23DG3) | binds |  |
| TTHERM_01289180 (from UniProt Q22A23) | binds |  |
| TTHERM_00372688 (protein, UniProt A4VEL3 1-435) MHISKRDQSSFTNPEFFYLKGVFGKKFYFLSETVLYEYPSEVYFNAHQDQPSNIYNLIEYTFQPDQKGLSVQPKDPKKSVRGTLMETLEMQNAIDWMNCINHNVRRRDNYYIDIIRQNKKIIFNNYQNLEYNMENIMEQDLKTNQSANQTIQFDQKIKQFKKIDQAWMSKVVDKFIKGMESSNHFKKHSENIQLMKKLLQMQNKNYLVEKDQQLIKELDSIIDLFNIQMMDQFYKKEHIRSLIKSKTYYSNYTFMLYEFISQIQKLIIYEMENNNMKYTRDLLCSQEKLIRNSINDLESVVKTLLDEYNSSYSVALTEDIKHALIKVFKFFQNEIDCFLTYINYFIQEIFKSAYQLNQVNYLLQSLNYQQQIQYIGLGQITIEILELSKNQDKFESEEKSKSVLKKLCNNLLSYQLQIQEKLHNLISNIMPSILE | binds |  |
| TTHERM_00112690 (protein, UniProt Q22ZA2 1-801) MPENDIFPNGLVFEKMFHYIWTQSDMFEQKLNVNLPQTVIFKNSLPIFWYFTDKNGQIKKKKTEKHTPENIYEVFTKKIPKCGVVAQLLYPTTCENEFNPRTNINPKGQISGLHYIDSTTEAKIRYLTEEDLAKFLNGEMQISSGVLQQFIEPATLHNDSIQVVYTPRVVLMNKRVNTKNLYNQNVDIYERCCTFDGPDYFSQNLQMSGPISKEMTEQVDRIMGHLETISYGLFNILKIHLYFKIDANRKIWFLWAGGVSMHNISDKSNSQKPQQVISQPEIQIPDIHQSVSIKRKPIQLQKELFCLKCNKKGRSVDFFELKFSDLLNEYDNTETQKITAQNPYNQNKVFGKNQREDMLGQTLTNTFMEFKQMNQTGNYSSSKKNHEEQLKKQAEKHTVYKNKEIPSFFTLLFPKLDTENFSQISQTFYFKNQKIMVCRECYLEFSSLYQKQIETFKQQNSDYSSTATSFSDKRSTNRSNSYMKFQNIQSEQKKINQEFQKKLRSLSEDKLKSNEKIQKLFKLAKLGKAEDQIEQENKKSNLSLNENQKDKSDYCNLDTSNSGYNFDDKSHNTAQFFKNDEPSSTMKTIQKQNENTIQETLKLINEIYSNKNIMNTNQKLQNRPKPYQTYKYNQIDTAKLKQKIQSAISLKSDIFNKQKTTNLTEQTTNHTEPNLTNEELKTQKTDFSAITQKKEQIPQKDISKIIATNPYKFSYYEVLKKQELSPKNVQESKTDSEPLKPRIIVRSKRAHSQINFLPKDTPSKQPSNQSSQKRLLRTTSSSIQRFPVKMISERHSENSNI | binds |  |

Other lines, results leading:

| binding [1] | binding [2] | Molecule |
| --- | --- | --- |
| binds |  | NUP185 (from UniProt I7ME84) |
| binds |  | GTU1 (Gamma-TUbulin 1) (from UniProt Q23FR3) |
|  | binds | ABC transporter family proteins (TTHERM_00564120) (protein, UniProt I7LWG7 1-719) MQYLNQQGSIIKKVQLNRYLEKEYFKRNKKKRIKQSKIGQITRQQKMAAQSKIPSNDQLWADLMSQFVKFFFKNGQRTTITISAILALLGMLKLRKNQRSREVDSKVKQEKERKGKGDVDKVFFERIKTLLKIVIPSIKCTAIIDIVLLTVFLVFRTYLSIYLAGANGRIVKAIIKLDYQLFVKRIIQLCMIAIPASFVNSYLDFLNKRLAVFFRTQLTQHLCGLYLNGMIGYQLTSLDCRVANPDQRLTNDIEKWANSLSVIYSNFTKPVLDIILFSRKLAEQVGWRGPLMVVLWYFFSGLVIKYISPPFGKLTAIAQRNEGDYRHCHTDIVHHCEEIAFYRGNNWEKERVAESFNKLIRHQVNVMVKRMYMGTFDSMLVKYGAVMVGYAVLGLPVFGPGKEQYLAKIGKDSSTITRDYVRNSSLLINLAKAIGRLVVSYKEIQELAGYTTVVCEMRDVLLDLNKGQYKRKLVESAVEYGFQQTTAPQFVTIQTGNLHEVEDVIKFDKVPIVTPGGEKLVREISLEIKVGENVIVTGPNGCGKSSLFRILGGLWPIFTGSLSSPQLSELFYIPQKAYLPTGTLRDQIIYPDTRLQMLRKKKTDDDLIEYLKNVNLEYIVNREPKKFEAFEDWYDKLSGGEKQRIAMARMFYHHPKFAILDECTSAVSADVENSLYAYCRKNNITLFTISHRVNDLKQHHDYILRFDGEGDWKLEKINH |

Results are given in words; binding and its absence hold for the method and conditions named. Binding seen in cells or lysates may run through a third protein. A yes stands for co-enrichment or nearness to the bait. Other partners may have been found.
